In patent US20260069693A1, “UROLITHINS AND T-CELL MEDIATED IMMUNE RESPONSE” (priority 2022, published 2026):

System: T cells
Experiment: qPCR and RNA sequencing of stimulated T cells
Assay type: cell-based, mice
Conditions: RNA sequencing, 48 hours DMSO or UA (50 μM)
Protocol: To explore the downstream events linking mitophagy to TSCM formation, the inventors performed RNA sequencing to globally assess differential gene expression in T cells exposed for 48 hours to either DMSO or UA in vitro. […] Indeed, when the inventors applied ICG001 to pharmacologically block TCF-1, UA-induced TSCM formation in vitro was abrogated (FIG. 5D-E).
In vitro activated T cells following the indicated treatments were collected followed by RNA isolation using the RNeasy kit (Qiagen). RNA quality and concentration were determined by Nanodrop spectrophotometer. Complementary DNA was generated using SuperScript II reverse transcriptase (ThermoFisher). A total reaction volume of 13 μl RNA was incubated with oligoDT and DNTP Mix (1 μl each) for 5 min at 65° C. The samples were allowed to cool down for 5 min on ice, and to each 4 μl of 5× First strand buffer, 1 μl DTT, 1 μl RNAseOUT™ and 1 μl Superscript II reverse transcriptase were added. Samples were incubated for 1 h at 42° C. Synthesized cDNA was 1:5 diluted in nuclease free water before being processed into gene expression analysis with the 96 wells StepOne real time PCR Machine (Applied biosystems) using 2× FastStart Universal SYBR Green Master Mix (Roche). CT values were normalized to the gene indicated in the respective figures. The following primers were used: […]
For RNA isolation of in vitro stimulated T cells, RNeasy mini kit (Qiagen) was used. 200 ng of total RNA was used to prepare the library for RNA sequencing. Coexpression patterns of genes associated with effector and memory cell fate, immune checkpoints, effector molecules, and adhesion/homing were chosen based on the literature as depicted in the main text. Data underwent z-score normalization for display as described previously (Xiong et al., 2020). Upstream regulator analysis was performed using Ingenuity pathway analysis software, using a cut-off log 2fold change of 1 and a p value of […].

## O=c1oc2cc(O)ccc2c2ccc(O)cc12 [UA, Urolithin A]
  differentially expressed genes downregulated: 413
  differentially expressed genes significantly upregulated: 765
  total number of differentially expressed genes: 1178
